Publication PMC11827600
Results are given in words; binding and its absence hold for the method and conditions named. Binding seen in cells or lysates may run through a third protein. Some binding calls cover weakened binding; strength is not graded here.

Protein sequences, listed by entry. Tags and fused reporters are not part of them. Lines headed by an entry give the natural chain unless they say otherwise; changes in a name come on top. Chains listed by the source or under a name are the forms on record and can include a tag or linker.
UniProt P38432: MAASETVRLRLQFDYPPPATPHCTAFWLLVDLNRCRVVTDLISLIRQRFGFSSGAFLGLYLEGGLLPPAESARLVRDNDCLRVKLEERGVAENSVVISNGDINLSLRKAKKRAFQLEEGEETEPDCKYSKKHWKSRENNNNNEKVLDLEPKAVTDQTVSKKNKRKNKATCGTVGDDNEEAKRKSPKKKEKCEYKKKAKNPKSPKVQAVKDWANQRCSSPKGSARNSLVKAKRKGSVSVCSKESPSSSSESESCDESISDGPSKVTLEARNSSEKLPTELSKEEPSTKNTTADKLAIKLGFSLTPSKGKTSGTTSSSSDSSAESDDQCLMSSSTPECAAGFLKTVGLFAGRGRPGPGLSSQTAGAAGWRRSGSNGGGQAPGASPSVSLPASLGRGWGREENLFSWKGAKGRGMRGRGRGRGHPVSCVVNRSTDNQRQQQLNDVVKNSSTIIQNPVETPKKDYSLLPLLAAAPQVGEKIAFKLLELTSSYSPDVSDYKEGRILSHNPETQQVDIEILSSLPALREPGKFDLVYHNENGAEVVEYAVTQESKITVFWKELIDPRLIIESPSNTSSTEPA
coilin–GFP mutant L (P38432, form named): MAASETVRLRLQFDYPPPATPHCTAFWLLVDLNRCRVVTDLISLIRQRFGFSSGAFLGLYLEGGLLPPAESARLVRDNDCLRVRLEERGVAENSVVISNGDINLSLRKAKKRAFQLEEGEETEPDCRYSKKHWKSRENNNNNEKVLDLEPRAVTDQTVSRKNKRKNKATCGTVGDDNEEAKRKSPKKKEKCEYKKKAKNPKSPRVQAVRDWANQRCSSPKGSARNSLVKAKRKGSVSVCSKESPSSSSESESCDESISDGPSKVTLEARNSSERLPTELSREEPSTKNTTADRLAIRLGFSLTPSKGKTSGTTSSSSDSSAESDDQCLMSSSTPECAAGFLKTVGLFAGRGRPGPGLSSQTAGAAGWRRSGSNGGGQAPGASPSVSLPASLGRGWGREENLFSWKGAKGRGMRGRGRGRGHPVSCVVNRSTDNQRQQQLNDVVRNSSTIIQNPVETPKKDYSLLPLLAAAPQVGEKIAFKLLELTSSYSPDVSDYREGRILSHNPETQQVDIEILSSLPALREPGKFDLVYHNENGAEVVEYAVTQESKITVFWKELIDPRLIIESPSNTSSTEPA
coilin–GFP mutant I (P38432, form named): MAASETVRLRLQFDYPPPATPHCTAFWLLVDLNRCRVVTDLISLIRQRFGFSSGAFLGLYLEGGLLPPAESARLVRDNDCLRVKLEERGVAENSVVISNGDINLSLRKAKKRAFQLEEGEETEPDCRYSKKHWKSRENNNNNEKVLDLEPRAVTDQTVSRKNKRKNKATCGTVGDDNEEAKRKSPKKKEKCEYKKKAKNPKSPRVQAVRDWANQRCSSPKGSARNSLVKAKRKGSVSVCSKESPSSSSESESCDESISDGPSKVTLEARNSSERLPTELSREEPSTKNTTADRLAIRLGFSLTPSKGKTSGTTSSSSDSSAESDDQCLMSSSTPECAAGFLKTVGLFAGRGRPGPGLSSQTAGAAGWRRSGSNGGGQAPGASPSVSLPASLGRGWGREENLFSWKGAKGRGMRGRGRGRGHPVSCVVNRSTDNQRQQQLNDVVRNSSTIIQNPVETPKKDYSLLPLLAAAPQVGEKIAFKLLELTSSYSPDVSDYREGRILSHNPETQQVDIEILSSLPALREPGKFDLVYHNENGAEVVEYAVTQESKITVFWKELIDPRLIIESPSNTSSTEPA

Assays:
Experiment in all cases: co-IP; HeLa cells transfected 24 h; lysate in RIPA buffer plus protease inhibitors, sonicated; immunoprecipitation with anti-GFP mouse monoclonal antibody and protein G beads, three washes with RIPA; western blot for Nopp140 and GFP
coilin–GFP mutant L = coilin–GFP mutant L (UniProt P38432)
coilin–GFP mutant I = coilin–GFP mutant I (UniProt P38432)
WT coilin–GFP = WT coilin–GFP (UniProt P38432)

Measured: binding

B1: Nopp140 (protein, UniProt Q14978 1-699)
chain: MADAGIRRVVPSDLYPLVLGFLRDNQLSEVANKFAKATGATQQDANASSLLDIYSFWLKSAKVPERKLQANGPVAKKAKKKASSSDSEDSSEEEEEVQGPPAKKAAVPAKRVGLPPGKAAAKASESSSSEESSDDDDEEDQKKQPVQKGVKPQAKAAKAPPKKAKSSDSDSDSSSEDEPPKNQKPKITPVTVKAQTKAPPKPARAAPKIANGKAASSSSSSSSSSSSDDSEEEKAAATPKKTVPKKQVVAKAPVKAATTPTRKSSSSEDSSSDEEEEQKKPMKNKPGPYSSVPPPSAPPPKKSLGTQPPKKAVEKQQPVESSEDSSDESDSSSEEEKKPPTKAVVSKATTKPPPAKKAAESSSDSSDSDSSEDDEAPSKPAGTTKNSSNKPAVTTKSPAVKPAAAPKQPVGGGQKLLTRKADSSSSEEESSSSEEEKTKKMVATTKPKATAKAALSLPAKQAPQGSRDSSSDSDSSSSEEEEEKTSKSAVKKKPQKVAGGAAPSKPASAKKGKAESSNSSSSDDSSEEEEEKLKGKGSPRPQAPKANGTSALTAQNGKAAKNSEEEEEEKKKAAVVVSKSGSLKKRKQNEAAKEAETPQAKKIKLQTPNTFPKRKKGEKRASSPFRRVREEEIEVDSRVADNSFDAKRGAAGDWGERANQVLKFTKGKSFRHEKTKKKRGSYRGGSISVQVNSIKFDSE
binds: coilin–GFP mutant L | coilin–GFP mutant I | WT coilin–GFP
